Reference: article PMC7819943, “Rice protein-binding microarrays: a tool to detect cis-acting elements near promoter regions in rice”
The other results are listed elsewhere or left out.

By UniProt entry, the sequences of proteins in these tests, tags left out.
UniProt Q0JBA9, entry or part of it: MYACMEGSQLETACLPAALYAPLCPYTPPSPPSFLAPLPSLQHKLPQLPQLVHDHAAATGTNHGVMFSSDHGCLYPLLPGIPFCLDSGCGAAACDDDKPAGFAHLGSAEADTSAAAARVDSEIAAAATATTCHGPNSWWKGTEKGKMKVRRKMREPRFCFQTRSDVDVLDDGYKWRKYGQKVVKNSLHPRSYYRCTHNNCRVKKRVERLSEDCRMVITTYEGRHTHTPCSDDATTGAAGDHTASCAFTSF

These sequences were tested against OsWRKY34 (Oryza sativa, UniProt Q0JBA9 1-250) (assay: protein-binding microarray (RPBM); PBS, 2% BSA, 51.3 ng/ul salmon testes DNA, 50 uM zinc acetate, 200 nM TF, 25 C, 1 h; high values mean tight binding). Conditions: protein: recombinant; tags: N-terminal polyhistidine and DsRed monomer fusion (pET32a); label: CyDye5-dUTP incorporated in the synthesized complementary strand; 3' TTTTT single-stranded linker to array surface; dsDNA, one strand shown.
How it was run: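 A custom Agilent array was converted to double-stranded form by primer extension with Cy5-dUTP and blocked with 2% BSA. Protein at 200 nM in PBS with 2% BSA, salmon testes DNA and 50 µM zinc acetate was applied for 1 h at 25 °C, followed by washing. The proteins were polyhistidine–DsRed N-terminal fusions of transcription factors, expressed in E. coli BL21-CodonPlus and Ni–NTA-purified. The binding signal is per-feature fluorescence intensity (arbitrary units) from an Axon 4000B scanner.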

Row | Sequence | binding signal
1 | GGTTTTTATGGGGTTGCTCTTTGATTTTTTTTTTCTCCTGCGGAGTCACCTAGTGCAG | 12200 fluorescence intensity (a.u.)
2 | AGTTTTTGAAGGAACTTACTTTTCAGTTTTCCACGAGTCTCGGAGTCACCTAGTGCAG | 8910 fluorescence intensity (a.u.)
3 | ACCGCCCCGCGTAGCCGCCGCCATCGTTTCTCCCCGACGCCGGAGTCACCTAGTGCAG | 8380 fluorescence intensity (a.u.)
4 | TCGTCGGTTTCTCGAGCTTTCCGTTGATCTTGATGCGTTCCGGAGTCACCTAGTGCAG | 10500 fluorescence intensity (a.u.)
5 | TTCATTCCCAAATGCCACCCGGGCCCACATGTCAGCCTCACGGAGTCACCTAGTGCAG | 9900 fluorescence intensity (a.u.)
6 | ACTTCCGATGCGTAATAAGGCTTTAGTCCCACAACTGACGCGGAGTCACCTAGTGCAG | 8630 fluorescence intensity (a.u.)
7 | CGCCGCCACTTCGCCCTCCGCTTCCGCCGCCGCCGCGCCGCGGAGTCACCTAGTGCAG | 12900 fluorescence intensity (a.u.)
8 | ATGCATTTCTTTTAGGATTTGTGATGTATTTTTCGTTTGACGGAGTCACCTAGTGCAG | 9640 fluorescence intensity (a.u.)
9 | CATTCCTGCGTTTTTTCTGTGTTTTGTAATCCTCTGTTTTCGGAGTCACCTAGTGCAG | 14100 fluorescence intensity (a.u.)
10 | TTGATGCTTAGTGGCTACTGTGTTCTGTACTACCACCCAGCGGAGTCACCTAGTGCAG | 8120 fluorescence intensity (a.u.)
11 | TCTTTTCGGTCTTTACATTTTCCTCTCATTTTAATCTATTCGGAGTCACCTAGTGCAG | 9260 fluorescence intensity (a.u.)
12 | TGCTTGCTTGCTTGGTTTGATTGGTGGAGGTGGGAGGAGTCGGAGTCACCTAGTGCAG | 8520 fluorescence intensity (a.u.)
13 | CTGACGGACACTACTCTACTCCCTCCGCTCGCCGGAGCTACGGAGTCACCTAGTGCAG | 9050 fluorescence intensity (a.u.)
14 | TATGCCTAATCCTATTTCGCCCTTTTGTATGAGATTGAGACGGAGTCACCTAGTGCAG | 9440 fluorescence intensity (a.u.)
15 | GTAGTAGTAGGGGAAATTGTTTTCATCCCTTAAGATATATCGGAGTCACCTAGTGCAG | 8470 fluorescence intensity (a.u.)
16 | GCTCCCGTGCCGCCACCGATTCCTCCAACAACGCAAAGCTCGGAGTCACCTAGTGCAG | 8850 fluorescence intensity (a.u.)
17 | AGTAGGTTGTTGGTTTTGTACCTTTGGGCTCTTTGCCTTTCGGAGTCACCTAGTGCAG | 10900 fluorescence intensity (a.u.)
18 | ACTCCGCCACCTCCTGCCACTGACGCTCCGGTGCAGCAGCCGGAGTCACCTAGTGCAG | 8290 fluorescence intensity (a.u.)
19 | AGATAATCCATTGTTCTAACTGTTCTTTTGGTCTCTTTCACGGAGTCACCTAGTGCAG | 8180 fluorescence intensity (a.u.)
20 | CCTCAGCATTCATCTTTGACCCTTAGGACTTATTATCCCTCGGAGTCACCTAGTGCAG | 10500 fluorescence intensity (a.u.)
21 | AAACCAAACTACGCCCGTTGGCTGTCGTACTCTTTCGTAACGGAGTCACCTAGTGCAG | 8360 fluorescence intensity (a.u.)

Part of the list above, tab-delimited.
Row	Sequence	binding signal
14	TATGCCTAATCCTATTTCGCCCTTTTGTATGAGATTGAGACGGAGTCACCTAGTGCAG	9440 fluorescence intensity (a.u.)
15	GTAGTAGTAGGGGAAATTGTTTTCATCCCTTAAGATATATCGGAGTCACCTAGTGCAG	8470 fluorescence intensity (a.u.)
16	GCTCCCGTGCCGCCACCGATTCCTCCAACAACGCAAAGCTCGGAGTCACCTAGTGCAG	8850 fluorescence intensity (a.u.)

Carrying on:

Row | Sequence | binding signal
22 | TGAGCCCCTGATGCGCCCCATACTGCCGTCGCCGTCGCCCCGGAGTCACCTAGTGCAG | 8720 fluorescence intensity (a.u.)
23 | CGCCATCCCCACCGCCGGCCTCGCCCTGTCGCTGCTGCTCCGGAGTCACCTAGTGCAG | 10400 fluorescence intensity (a.u.)
24 | ATTATGTTGTAAAAAATCTACTAGTTTTATGTCTATCTATCGGAGTCACCTAGTGCAG | 9130 fluorescence intensity (a.u.)
25 | AAATTGAATCCATGCATGTTTCTTTCAATTTCATCTTAAACGGAGTCACCTAGTGCAG | 9100 fluorescence intensity (a.u.)
26 | CACATAAGCAAAGTGAGTAGTGGTCTTGGTTTGGCTTTTTCGGAGTCACCTAGTGCAG | 8880 fluorescence intensity (a.u.)
27 | TCTCCCGACACAGTGTCTCTCACTAATTCCATTTCGCCGTCGGAGTCACCTAGTGCAG | 10500 fluorescence intensity (a.u.)
28 | TGTGTGTTGTCTTGGAGCGCTTGTCGACGTGACGGGAATGCGGAGTCACCTAGTGCAG | 9210 fluorescence intensity (a.u.)
29 | ATATATACTGCCATGAGACCTATTTGCATGGCTTTGACCACGGAGTCACCTAGTGCAG | 10100 fluorescence intensity (a.u.)
30 | CTAGTGGGGTGGTTTTTTGAAATTTTGACCAAATCATCCCCGGAGTCACCTAGTGCAG | 8980 fluorescence intensity (a.u.)
31 | ATCGCAGCTATCTCACTCGTTTCGTACAACAGCCAAAAAGCGGAGTCACCTAGTGCAG | 10200 fluorescence intensity (a.u.)
32 | CAATAGTCACAAAGCTGCAAGAACTCCACGTCTCGCATCACGGAGTCACCTAGTGCAG | 8340 fluorescence intensity (a.u.)
33 | GATTGGATTAGGGGATTGGTTGCATTTGTTCTTGATTTTACGGAGTCACCTAGTGCAG | 15600 fluorescence intensity (a.u.)
34 | GCCGAGGGCGCCGCCGGCGTCGTCCGAGCTGTGCCGCGCGCGGAGTCACCTAGTGCAG | 8640 fluorescence intensity (a.u.)
35 | CGTATTCTTTTTTTGCAATTCCATGGCCTATGCAACTTAACGGAGTCACCTAGTGCAG | 11200 fluorescence intensity (a.u.)
36 | TCGTTCTCGTTGTCTCCTCCGCTCCTTGCGCCGCCGCCAACGGAGTCACCTAGTGCAG | 13900 fluorescence intensity (a.u.)
37 | GCCGCAAGATGGTGACCACTTCCACAGAGATTTTCGTTTGCGGAGTCACCTAGTGCAG | 8800 fluorescence intensity (a.u.)
38 | CAATTGCTCCTATGCTTGTGCTTCAAAGGCCATCTTTTTACGGAGTCACCTAGTGCAG | 8420 fluorescence intensity (a.u.)
39 | TATGATTAATACTTTATGCGTGACTTATCTTTTTAATTTTCGGAGTCACCTAGTGCAG | 8250 fluorescence intensity (a.u.)
40 | ACGTACCTTCTCCATCATCCGACGTTCTGCTACGTGAATTCGGAGTCACCTAGTGCAG | 12200 fluorescence intensity (a.u.)
41 | GCGATTTATCTCCTTTCTGTTTCCGAATTTTATTAGTAGTCGGAGTCACCTAGTGCAG | 11500 fluorescence intensity (a.u.)
42 | CCCATTAATATCCCGGCCTTTCACACACGGCGGCCCATGCCGGAGTCACCTAGTGCAG | 8160 fluorescence intensity (a.u.)
